For four molecules, binding results are on record in US20220204613A1 (D 10 THERAPEUTICS, published 2022).

Amino acid sequences for entries named in this document (tags omitted). A change or cut given only in a name is not applied to a line headed by its entry.
UniProt Q08722: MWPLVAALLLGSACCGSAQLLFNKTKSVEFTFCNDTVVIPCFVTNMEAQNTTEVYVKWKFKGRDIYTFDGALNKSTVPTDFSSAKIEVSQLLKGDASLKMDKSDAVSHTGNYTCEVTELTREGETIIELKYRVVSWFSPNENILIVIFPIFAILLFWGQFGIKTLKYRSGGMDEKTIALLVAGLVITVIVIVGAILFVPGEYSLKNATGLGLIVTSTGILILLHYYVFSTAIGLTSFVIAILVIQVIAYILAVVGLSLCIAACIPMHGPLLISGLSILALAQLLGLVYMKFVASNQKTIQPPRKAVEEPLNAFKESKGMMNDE

Numbering of substitutions follows the chain as printed. In names and notes the source's numbering stands. Results are given in words; binding and its absence hold for the method and conditions named. Some entries that bind do so weakly or less than the wild type.

Test [1] addresses T1, human CD47 protein (human, UniProt Q08722 19-139, limits assumed).
T1 construct: also called human CD47 antigen
The test is described as follows: affinity ranking of humanized antibodies from supernatant against human CD47 protein (sensorgrams).

Test [2] concerns the target T1, human CD47 protein. Kind of test: SPR affinity ranking from supernatant.
Test [3] deals with T1, human CD47 protein. Kind of test: binding confirmation of the chimeric antibody (SPR / ELISA). A general note: ELISA stands for enzyme-linked immunosorbent assay.

B1: VH1+VL1 (antibody, human IgG4 S228P, kappa, V domains shown)
VH: QVQLVQSGAEVKKPGASVKVSCKASGYTFTSSVIHWVRQAPGQGLEWMGYINPYSDGTKFNEKCKIRVTMTRDTSISTAYMELSRLRSDDTAVYYCARGLIGTRYDSWFAYWGQGTLVTVSS
VL: DIQMTQSPSSLSASVGDRVTITCRTSQDINNYLNWYQQKPGKAPKLLIYYTSRLHSGVPSRFSGSGSGTDFTFTISSLQPEDIATYYCQQGNTLPYTFGGGTKVEIKR
notes: Humanized IgG, hIgG4 CH (S228P) and human kappa CL; Tested from supernatant; also called U0959FD090-VH1 + U0959FD090-VL1
On to B1, for which the binding result with human CD47 protein [1] and in the test with human CD47 protein [2] was “binds” in each case.

B2: VH1+VL3 (antibody, human IgG4 S228P, kappa, V domains shown)
VH: B1 VH
VL: B1 VL with P44V, F71Y, Y87F
notes: Humanized IgG, hIgG4 CH (S228P) and human kappa CL; leader residues 1-19 of each entry left out; Tested from supernatant; also called U0959FD090-VH1 + U0959FD090-VL3
Consider B2, for which the binding result with human CD47 protein [1] and with human CD47 protein [2] was “binds” throughout.

B3: VH1+VL2 (antibody, human IgG4 S228P, kappa, V domains shown)
VH: B1 VH
VL: B1 VL with P44V, Y87F
notes: Humanized IgG, hIgG4 CH (S228P) and human kappa CL; leader residues 1-19 of each entry left out; Tested from supernatant; also called U0959FD090-VH1 + U0959FD090-VL2
As for B3, the binding entry with human CD47 protein [1] and with human CD47 protein [2] was “binds” throughout.

B4: chimeric-VH+VL2 (antibody, human IgG4, V domains shown)
VH: EVQLQQSGPELVKPGASVKLSCKASGYTFTSSVIHWVKQKPGQGLEWLGYINPYSDGTKFNEKCKIKATLTSDKSSSTAYMELSSLTSEDSAVYYCARGLIGTRYDSWFAYWGQGTLVTVSA
VL: DIQMNQSPSSLSASLGDTITITCHASQNINVWLSWYQQKPGNIPKLLIYKASNLHTGVPSRFSGSGSGTGFTLTISSLQPEDIATYYCQQGQSYPLTFGAGTKLELK
Regarding B4, in the test with human CD47 protein [3], the binding entry is given as “binds”.
